In article PMC11166458, “Caskin2 is a novel talin- and Abi1-binding protein that promotes cell motility” (Journal of Cell Science, 2024):

System: talin-R7R8 (residues 1358–1653), R8 domain
Test: X-ray structure of talin-R7R8 in complex with Caskin2-LD peptide, interface analysis
Type: binding, murine
Protocol: A codon-optimized synthetic gene encoding murine talin-R7/R8 domains (residues 1358–1653) was cloned into the pETNKI-6xhis-3C-LIC vector ([Luna-Vargas et al., 2011]). The 6×his–3C–talin-R7/R8 protein was expressed in Bl21(DE3) cells, for 18 h at 20°C upon induction with 0.4 mM IPTG. Cells were harvested by centrifugation (4000 g for 15 min) and stored at −20°C. After thawing, cells were resuspended in lysis buffer [25 mM Tris-HCl pH 8.0, 10 mM imidazole, 200 mM NaCl, 1 mM TCEP and 5 μg/ml DNase (Roche)] and lysed by sonication. The soluble lysate fractions were collected after centrifugation (55,000 g at 4°C for 30 min) and applied to a nickel Sepharose column. Beads were washed with wash buffer (lysis buffer without DNase) and protein was eluted in the same buffer supplemented with 250 mM imidazole. The 6×His tag was cleaved off by his-3C protease during dialysis against 25 mM Tris-HCl pH 8.0, 100 mM NaCl, 1 mM TCEP for 16 h at 4°C. The protein solution was diluted with an equal volume of 25 mM Tris-HCl pH 8.0, 1 mM TCEP before his-3C protease and uncleaved 6×his–talin-R7/R8 were removed by nickel Sepharose. The protein was further purified by anion exchange chromatography (Resource Q column, Cytiva) followed by size exclusion chromatography (S75 Superdex 16/60, Cytiva) in 25 mM Tris-HCl pH 8.0, 100 mM NaCl, 1 mM TCEP. Talin-R7/R8 eluted in a single peak. The protein was concentrated to 32 mg/ml and aliquots were snap-frozen in liquid nitrogen and stored at −80°C.
Purified talin-R7/R8 protein (32 mg ml^−1) was mixed with solubilized Caskin2 LD peptide in a 1:2 molar ratio of protein to peptide. Crystallization screening was performed using the vapor diffusion sitting-drop method; droplets of 200 nl, composed of equal volumes of protein complex and crystallization agent, were prepared using a Mosquito dropsetter (SPT Labtech) as described previously ([Newman et al., 2005]). […] Diffracting crystals were grown in 0.1 M bis-Tris propane pH 7.0, 0.1 M NaBr and 22–26% PEG3350. Crystals were cryo-protected by increasing the PEG3350 concentration to 30% and by addition of 10% glycerol before vitrifying them in liquid nitrogen.
Crystallographic data were collected at the PX1 beamline at the Swiss Light Source (SLS), Villigen, Switzerland and processed with XDS ([Kabsch, 2010]) and Aimless ([Evans and Murshudov, 2013]). The phase problem was solved by molecular replacement using Phaser ([McCoy et al., 2007]) and two separate search models, using the Talin R7 and R8 domains (PDB: 5FZT) ([Zacharchenko et al., 2016]). After a few cycles of model building in Coot ([Emsley et al., 2010]) and model refinement in REFMAC5 ([Kovalevskiy et al., 2018]), the electron density for Caskin-2 peptide was clearly visible. […]

In the case of “Caskin2-LD peptide: C-terminal LD motif peptide of Caskin2 (residues 1187–1202) (STMFDALADQLDAMLD; Atto488 label)”, the buried interface area (crystal structure at 2.7 Å, PDB 7ZW4) is reported as 790 Å, the “buried surface area of F1190” value (residue F1190) is reported as 113 Å and the “buried surface area of L1197” value (residue L1197) is reported as 105 Å. For the same substance, the “buried surface area of L1201” value (residue L1201) was 104 Å.
